The values that follow come from patent publication JP2018038398A.

Chains of the proteins cited; added tags and fusions are not shown. Residues count along the entry.
UniProt P10646, residues 29-304: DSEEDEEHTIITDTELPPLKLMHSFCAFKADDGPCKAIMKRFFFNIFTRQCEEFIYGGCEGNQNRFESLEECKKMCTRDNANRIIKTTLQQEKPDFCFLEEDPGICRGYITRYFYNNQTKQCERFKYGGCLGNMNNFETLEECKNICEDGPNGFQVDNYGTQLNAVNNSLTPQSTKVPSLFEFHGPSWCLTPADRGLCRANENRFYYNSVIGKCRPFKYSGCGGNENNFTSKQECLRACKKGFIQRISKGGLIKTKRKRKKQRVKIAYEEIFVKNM

Residue numbers refer to the chain shown, from its start. Results are given in words; binding and its absence hold for the method and conditions named. Some entries that bind do so weakly or less than the wild type.

B1: TP-3C3 (Fab, V domains shown)
VH: QVQLQQSGPGLVKPSQTLSLTCAISGDSVSSNSAAWGWIRQSPGRGLEWLGVIYYRSKWYNDYAVSVKSRITINPDTSKNQFSLQLNSVTPEDTAVYYCARARAKKSGGFDYWGQGTLVTVSS
VL: DIQMTQSPSSLSASVGDRVTITCRASQSINPYLNWYQQKPGKAPKLLIYAASNLQSGVPSRFSGSGSGTDFTLTISSLQPEDFAVYYCQQLDNRSITFGQGTKVEIKR
B2: TP-3D3 (Fab, V domains shown)
VH: QVQLVESGGGLVQPGGSLRLSCAASGFTFSSYASWVRQAPGKGLEWVSGISGDGSNTHYADSVKGRFTISRDNSKNTLYLQMNSLRAEDTAVYYCARYDNFYFDVWGQGTLVTVSS
VL: DIELTQPPSVSVAPGQTARISCSGDSLGSKFAHWYQQKPGQAPVLVIYDDSNRPSGIPERFSGSNSGNTATLTISGTQAEDEADYYCSTYTSRSHSYVFGGGTKLTVLG
B3: TP-2A6 (Fab, V domains shown)
VH: QVQLVESGGGLVQPGGSLRLSCAASGFTFSRYAMSWVRQAPGKGLEWVSSIISSSSETYYADSVKGRFTISRDNSKNTLYLQMNSLRAEDTAVYYCARLMGYGHYYPFDYWGQGTLVTVSS
VL: DIELTQPPSVSVAPGQTARISCSGDKIGSKYVYWYQQKPGQAPVLVIYDSNRPSGIPERFSGSNSGNTATLTISGTQAEDEADYYCASYDSIYSYWVFGGGTKLTVLG
B4: TP-3C1 (Fab, V domains shown)
VH: QVQLVESGGGLVQPGGSLRLSCAASGFTFSSYSMHWVRQAPGKGLEWVSGISYSSSFTYYADSVKGRFTISRDNSKNTLYLQMNSLRAEDTAVYYCARALGGGVDYWGQGTLVTVSS
VL: DIALTQPASVSGSPGQSITISCTGTSSDLGGFNTVSWYQQHPGKAPKLMIYSVSSRPSGVSNRFSGSKSGNTASLTISGLQAEDEADYYCQSYDLNNLVFGGGTKLTVLG
B5: TP-3B3 (Fab, V domains shown)
VH: QVQLVESGGGLVQPGGSLRLSCAASGFTFSSYGMHWVRQAPGKGLEWVSNISYMGSNTNYADSVKGRFTISRDNSKNTLYLQMNSLRAEDTAVYYCARGLFPGYFDYWGQGTLVTVSS
VL: DIELTQPASVSVAPGQTARISCSGDNLRSKYAHWYQQKPGQAPVLVIYGDNNRPSGIPERFSGSNSGNTATLTISGTQAEDEADYYCSAYAMGSSPVFGGGTKLTVLG
B6: TP-3E1 (Fab, V domains shown)
VH: QVQLVESGGGLVQPGGSLRLSCAASGFTFSNYAMTWVRQAPGKGLEWVSVISSVGSNTYYADSVKGRFTISRDNSKNTLYLQMNSLRAEDTAVYYCARPTKAGRTWWWGPYMDVWGQGTLVTVSS
VL: DIELTQPPSVSVAPGQTARISCSGDNIGSYYAYWYQQKPGQAPVLVIYDDSNRPSGIPERFSGSNSGNTATLTISGTQAEDEADYYCQSYDSTGLLVFGGGTKLTVLG
B7: TP-3B4 (Fab, V domains shown)
VH: QVQLQQSGPGLVKPSQTLSLTCAISGDSVSSNGAAWGWIRQSPGRGLEWLGHIYYRSKWYNSYAVSVKSRITINPDTSKNQFSLQLNSVTPEDTAVYYCARWGGIHDGDIYFDYWGQGTLVTVSS
VL: DIQMTQSPSSLSASVGDRVTITCRASQNISNYLNWYQQKPGKAPKLLIYGTSSLQSGVPSRFSGSGSGTDFTLTISSLQPEDFAVYYCQQYGNNPTTFGQGTKVEIKR
B8: TP-3C2 (Fab, V domains shown)
VH: QVQLQQSGPGLVKPSQTLSLTCAISGDSVSSSSAAWSWIRQSPGRGLEWLGMIYYRSKWYNHYAVSVKSRITINPDTSKNQFSLQLNSVTPEDTAVYYCARGGSGVMDVWGQGTLVTVSS
VL: B7 VL with N28S, S30T, G50D, T51V, S53N, G92S, N93G, N94Y, T96L

The target of this experiment is ヒトTFPI(American Diagnostica) (human) (UniProt P10646). Put plainly: ELISA screen of Fab lysates on coated human TFPI.
With B1, the binding entry is listed as “binds”.
As to B2, the binding entry is recorded as “binds”.
Consider B3, for which the binding result was “binds”.
With B4 the entry was “binds”; with B5, “binds”.
B6: the binding result is recorded as “binds”.
For B7, the binding entry is on record as “binds”.
For B8, the binding result is listed as “binds”.
